PubChem BioAssay AID1224828 | NIAID – 2016
Assay: 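Knock-downs that increase or decrease LPS-induced p65 nuclear translocation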 (primary screen). System: mouse RAW264.7 G9 macrophage reporter cells (GFP-p65, Tnf promoter-mCherry). Reagent: siRNA pool against mouse genes, 100 nM. Time to read-out: 2 days siRNA transfection, then 40 min LPS before fixation. Challenge: LPS (Salmonella minnesota R595) at 10 ng/ml. Measured: 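Imaged p65 nuclear translocation ratio, normalised to the plate median, converted to robust z-scores and averaged across two replicates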. Direction: p65 translocation robust z-score: higher = more nuclear NF-kappaB p65 after LPS than the plate median; nuclear/cytoplasmic p65 ratio: higher = more nuclear NF-kappaB p65. Rule for the call: 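Called active when z exceeds 3.3 or falls under -1.56 (median of Tlr4 controls), giving activity score of at least 50; no calls for control wells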. Calls: active = hit (p65 shift raised or lowered); inactive = no clear change.
Here is an unselected part of about 17,000 deposited reagents. 762 of them (4.5%) count as active. 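Active calls include both raised and lowered p65 entry, mostly lowered; wells with fewer than 50 cells lack a z-score.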 The raw values are shown without normalisation.

gene | p65 translocation robust z-score | nuclear/cytoplasmic p65 ratio, rep 1 | nuclear/cytoplasmic p65 ratio, rep 2 | low cell count flag | outcome
Stk32c (serine/threonine kinase 32C) | -0.1 | 1.46 | 1.37 | enough cells to score | inactive
Arfgap3 (ARF GTPase activating protein 3) | 0.45 | 1.67 | 1.7 | enough cells to score | inactive
Psme1 | 0.4 | 1.48 | 1.53 | enough cells to score | inactive
Setdb1 (SET domain, bifurcated 1) | -0.19 | 1.36 | 1.7 | enough cells to score | inactive
Cdcp2 (CUB domain containing protein 2) | -0.71 | 1.43 | 1.72 | enough cells to score | inactive
Fam161b (family with sequence similarity 161, member B) | – | 1.14 | 1.48 | fewer than 50 cells per well; well left out of scoring | inactive
Rnf215 (ring finger protein 215) | -0.95 | 1.41 | 1.31 | enough cells to score | inactive
Cpa1 (carboxypeptidase A1, pancreatic) | 0.31 | 1.59 | 1.4 | enough cells to score | inactive
Hebp1 (heme binding protein 1) | 0.18 | 1.69 | 1.55 | enough cells to score | inactive
Sprr2h (small proline-rich protein 2H) | 0.97 | 1.62 | 1.28 | enough cells to score | inactive
Dele1 (DAP3 binding cell death enhancer 1) | 0.42 | 1.49 | 1.54 | enough cells to score | inactive
B330016D10Rik (RIKEN cDNA B330016D10 gene) | -1.09 | 1.24 | 1.66 | enough cells to score | inactive
Igfbp6 (insulin-like growth factor binding protein 6) | -0.43 | 1.33 | 1.37 | enough cells to score | inactive
Dcaf12 (DDB1 and CUL4 associated factor 12) | 3.59 | 1.85 | 1.7 | enough cells to score | active
Ephb4 (Eph receptor B4) | 1.87 | 1.99 | 1.62 | enough cells to score | inactive
Stam2 | -0.85 | 1.41 | 1.45 | enough cells to score | inactive
Eid1 (EP300 interacting inhibitor of differentiation 1) | 0.62 | 1.56 | 2 | enough cells to score | inactive
Fbxo46 (F-box protein 46) | -0.17 | 1.34 | 1.65 | enough cells to score | inactive
Nek9 (NIMA (never in mitosis gene a)-related expressed kinase 9) | -0.58 | 1.89 | 1.3 | enough cells to score | inactive
Vac14 (Vac14 homolog (S. cerevisiae)) | 0.52 | 1.5 | 1.76 | enough cells to score | inactive
Prss28 (serine protease 28) | -0.51 | 1.47 | 1.37 | enough cells to score | inactive
Or13n4 (olfactory receptor family 13 subfamily N member 4) | -0.15 | 1.36 | 1.25 | enough cells to score | inactive
Cd36 (CD36 molecule) | 0.95 | 1.59 | 1.5 | enough cells to score | inactive
Soat1 (sterol O-acyltransferase 1) | 0.53 | 1.56 | 1.7 | enough cells to score | inactive
Mrpl58 (mitochondrial ribosomal protein L58) | -0.29 | 1.41 | 1.32 | enough cells to score | inactive
Mrpl54 (mitochondrial ribosomal protein L54) | 1.27 | 1.97 | 1.8 | enough cells to score | inactive
Pank1 (pantothenate kinase 1) | -1.5 | 1.7 | 1.19 | enough cells to score | inactive
Fbxl22 (F-box and leucine-rich repeat protein 22) | 0.29 | 1.55 | 1.52 | enough cells to score | inactive
Rap2a (RAS related protein 2a) | 0.23 | 1.61 | 1.68 | enough cells to score | inactive
Actrt2 (actin-related protein T2) | -1.31 | 1.38 | 1.36 | enough cells to score | inactive
Rprd1a (regulation of nuclear pre-mRNA domain containing 1A) | -0.55 | 1.54 | 1.32 | enough cells to score | inactive
Invs (inversin) | -0.76 | 1.44 | 1.33 | enough cells to score | inactive
C4b (complement C4B) | 0.56 | 1.7 | 1.7 | enough cells to score | inactive
Mfng (MFNG O-fucosylpeptide 3-beta-N-acetylglucosaminyltransferase) | 0.42 | 1.39 | 1.49 | enough cells to score | inactive
R3hdm4 (R3H domain containing 4) | 0.03 | 1.51 | 1.53 | enough cells to score | inactive
Glra3 (glycine receptor, alpha 3 subunit) | -1.2 | 1.26 | 1.24 | enough cells to score | inactive
Ccl21a (C-C motif chemokine ligand 21 (serine)) | -0.23 | 1.74 | 1.35 | enough cells to score | inactive
Adtrp (androgen dependent TFPI regulating protein) | – | 1.27 | 1.62 | fewer than 50 cells per well; well left out of scoring | inactive
Ky (kyphoscoliosis peptidase) | 0.61 | 1.52 | 1.62 | enough cells to score | inactive
Prss50 (serine protease 50) | – | 1.3 | 1.26 | fewer than 50 cells per well; well left out of scoring | inactive

Called active, among the entries above:
gene | p65 translocation robust z-score | nuclear/cytoplasmic p65 ratio, rep 1 | nuclear/cytoplasmic p65 ratio, rep 2 | low cell count flag | outcome
Dcaf12 (DDB1 and CUL4 associated factor 12) | 3.59 | 1.85 | 1.7 | enough cells to score | active
